Results as given in PubChem BioAssay AID1508600 (Functional Genomics Laboratory (NCATS/FGL), 2020).
In all, about 53,000 sequences went through this assay and about 3,700 (7%) were called active.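 How the source made its calls: active means gene knockdowns whose robust z-score for IL-1 alpha signal is at least 2 or at most -2, so actives lie on both sides; inactive means the rest.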 This is one part of the list.

test: Components of the Cytosolic LPS Sensing Pathway: Gene Identification via Genome-wide siRNA Screen; details: RAW264.7 macrophages, IL-1a HTRF, actives lie on both sides, screened at 100 nM (by protocol), cells primed 5 h with Pam3CSK4 first;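 further: robust z of the log signal after scaling to non-targeting control siRNA wells of the plate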
Summary of the method: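 Three distinct siRNAs per gene were tested singly at 100 nM in RAW264.7 macrophages. Following Pam3CSK4 priming and 24 hour LipidA transfection, IL-1a secretion was read by HTRF.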

Sequence	z-score
GGAAAUCAGGAGUAAAAGUTT against Eif2ak2	inactive: 0.0157
CCAUUAUAACACCUAUGCATT against Fgf7	inactive: -0.558
GCAGAAGUCUCGUAUCCAGTT against Arl6ip4	inactive: 0.337
GGGCUUUUAUAACAAAUGUTT against Zfand6	inactive: -0.196
CGGAUUCCUAAAAGUUAUATT against Nae1	inactive: 0.873
GGAAAUGUUUCUGUUCAUUTT against Nipsnap3b	inactive: 0.295
GCUCUCCUGUUACUUAUAUTT against Maoa	inactive: 1.2
GGCUAUGUGUUGGAGUUCUTT against Mybph	inactive: 0.757
GCUAUUAUUGUACGUGCAATT against Adgre1	inactive: 0.195
CCAAGAAAGACAGUAACUATT against 4930432K21Rik	inactive: -0.986
GGAUGUGAACCUAAGUACUTT against Nup107	inactive: -0.751
GCAGAUAUUUUUGUAAGCATT against Csmd1	inactive: -0.644
GGAGAUAAAGCUGACACUGTT against Zc3h18	inactive: -0.38
GGCCUUUAAGAGUUUCCAUTT against A230052G05Rik	active: 2.1
GCAUUAAAGGAGUCCGAAUTT against Cpn1	inactive: -0.328
GGACUUGAUUAUCUACACUTT against Stk24	active: -2.24
GCUGUACGUUUGCACAUUCTT against Rc3h1	active: -2.87
GCGAUUCAUAACACCAUUGTT against Pole3	inactive: -1.43
CCUAGAUUAAAUACUCGGATT against Saxo2	inactive: 1.45
GGCAAUCAGCUUCACUGUGTT against Klk7	inactive: -0.446
GCAAAAUUCCUAGCCGUUUTT against Igf2bp2	inactive: -0.34
GGUGUUCUCGGUUUGAUCCTT against Ppm1k	inactive: -1.01
GGAAAGGACAUUGUUGUUCTT against Psma7	inactive: -0.934
CCUCAUCUAUGCAUGUUGUTT against Olfr1394	inactive: -1.86
GGUUAAAAUGUCAUCCUUUTT against Trerf1	inactive: -0.0853
GGGAUAUGACAGAACCAUATT against Olfr1390	inactive: 0.0369
CCUUCCUAAUGAUUGCCAATT against Grm7	inactive: -0.755
CCAAUUUUCAAGAUCGGUCTT against Pakap	inactive: 0.347
GGAUGAACCCAGAAAGAUGTT against Gdf5	inactive: 0.584

Given with bars between the fields: entries from further up.
Sequence | z-score
GGAGAUAAAGCUGACACUGTT against Zc3h18 | inactive: -0.38
GGCCUUUAAGAGUUUCCAUTT against A230052G05Rik | active: 2.1
